Results are given in words; binding and its absence hold for the method and conditions named. Some binding calls cover weakened binding; strength is not graded here.
Columns and labels:
[1] = target: β2 integrin (surface protein of NIH3T3 cells) (murine (NIH3T3 murine fibroblasts)) (UniProt P11835); assay: ICAM-2 solid support and streptavidin-agarose two-column affinity chromatography, immunoblot
[2] = target: β1 integrin (surface protein of NIH3T3 cells) (murine (NIH3T3 murine fibroblasts)) (UniProt P09055); assay: as above
[3] = target: T1, β3 integrin (surface protein of NIH3T3 cells) (murine (NIH3T3 murine fibroblasts)) (UniProt O54890); assay: as above
T1 sequence (surface biotinylated (sulfo-NHS-LC-Biotin), looked up): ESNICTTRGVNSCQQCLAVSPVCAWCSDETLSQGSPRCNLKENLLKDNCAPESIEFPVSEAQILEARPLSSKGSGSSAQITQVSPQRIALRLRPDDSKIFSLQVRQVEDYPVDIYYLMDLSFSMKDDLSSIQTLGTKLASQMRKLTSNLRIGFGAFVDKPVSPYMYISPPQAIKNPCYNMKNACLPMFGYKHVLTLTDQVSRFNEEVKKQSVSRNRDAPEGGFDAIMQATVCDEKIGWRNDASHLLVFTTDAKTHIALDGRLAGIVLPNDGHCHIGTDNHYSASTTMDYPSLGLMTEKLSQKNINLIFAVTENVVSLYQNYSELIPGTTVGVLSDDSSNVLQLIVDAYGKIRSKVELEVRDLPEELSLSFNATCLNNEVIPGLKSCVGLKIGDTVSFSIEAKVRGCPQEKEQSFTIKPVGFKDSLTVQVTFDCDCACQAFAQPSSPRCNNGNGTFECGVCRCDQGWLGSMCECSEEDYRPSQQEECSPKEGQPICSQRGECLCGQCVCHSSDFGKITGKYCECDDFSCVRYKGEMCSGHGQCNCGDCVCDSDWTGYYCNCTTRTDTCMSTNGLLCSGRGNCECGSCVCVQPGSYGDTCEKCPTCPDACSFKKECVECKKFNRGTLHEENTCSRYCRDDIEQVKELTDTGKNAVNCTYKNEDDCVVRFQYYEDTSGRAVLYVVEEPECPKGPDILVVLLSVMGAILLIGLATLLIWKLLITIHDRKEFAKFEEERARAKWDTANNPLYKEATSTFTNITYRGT

Protein sequences, listed by entry. Tags and fused reporters are not part of them. Residues count along the entry.
UniProt P11835, residues 24-771: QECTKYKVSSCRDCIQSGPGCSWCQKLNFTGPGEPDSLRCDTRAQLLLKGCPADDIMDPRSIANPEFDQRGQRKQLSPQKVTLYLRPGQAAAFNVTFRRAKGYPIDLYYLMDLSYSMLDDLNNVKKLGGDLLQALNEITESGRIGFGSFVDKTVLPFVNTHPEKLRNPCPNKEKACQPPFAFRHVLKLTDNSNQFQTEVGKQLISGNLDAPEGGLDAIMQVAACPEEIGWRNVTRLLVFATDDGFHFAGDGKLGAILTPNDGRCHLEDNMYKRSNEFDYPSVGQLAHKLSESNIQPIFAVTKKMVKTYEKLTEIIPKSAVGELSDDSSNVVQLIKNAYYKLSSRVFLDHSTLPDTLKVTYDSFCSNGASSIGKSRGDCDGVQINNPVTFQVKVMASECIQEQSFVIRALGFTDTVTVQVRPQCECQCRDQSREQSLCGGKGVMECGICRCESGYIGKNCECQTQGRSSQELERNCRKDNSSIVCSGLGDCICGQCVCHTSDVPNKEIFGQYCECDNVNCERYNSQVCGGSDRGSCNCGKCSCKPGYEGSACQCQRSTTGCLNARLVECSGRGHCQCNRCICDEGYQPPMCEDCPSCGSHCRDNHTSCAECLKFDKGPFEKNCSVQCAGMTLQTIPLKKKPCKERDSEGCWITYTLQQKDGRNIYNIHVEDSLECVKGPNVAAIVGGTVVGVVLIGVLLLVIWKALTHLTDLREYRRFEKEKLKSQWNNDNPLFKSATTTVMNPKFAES
UniProt P09055, residues 21-798: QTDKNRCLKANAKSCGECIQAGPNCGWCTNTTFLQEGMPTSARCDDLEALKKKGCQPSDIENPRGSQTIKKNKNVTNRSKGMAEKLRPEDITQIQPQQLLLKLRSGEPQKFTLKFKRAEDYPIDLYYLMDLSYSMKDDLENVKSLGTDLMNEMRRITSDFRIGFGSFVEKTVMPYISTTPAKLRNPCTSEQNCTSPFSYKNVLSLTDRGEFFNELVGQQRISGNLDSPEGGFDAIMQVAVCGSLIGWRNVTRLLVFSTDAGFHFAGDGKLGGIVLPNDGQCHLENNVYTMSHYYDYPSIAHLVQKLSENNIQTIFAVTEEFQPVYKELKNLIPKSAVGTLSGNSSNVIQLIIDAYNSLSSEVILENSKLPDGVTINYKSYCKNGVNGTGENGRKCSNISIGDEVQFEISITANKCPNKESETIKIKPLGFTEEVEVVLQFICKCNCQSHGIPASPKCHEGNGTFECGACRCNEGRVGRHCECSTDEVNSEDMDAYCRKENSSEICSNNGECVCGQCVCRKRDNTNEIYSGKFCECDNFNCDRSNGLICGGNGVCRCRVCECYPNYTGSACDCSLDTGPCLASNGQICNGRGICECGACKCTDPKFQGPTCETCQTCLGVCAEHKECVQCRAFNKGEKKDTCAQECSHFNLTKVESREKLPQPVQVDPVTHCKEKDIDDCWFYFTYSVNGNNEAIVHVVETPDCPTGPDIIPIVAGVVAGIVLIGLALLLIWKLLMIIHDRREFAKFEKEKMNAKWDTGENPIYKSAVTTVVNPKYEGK

[4] = target: β2 integrin (surface protein of NIH3T3 cells) (murine (NIH3T3 murine fibroblasts)) (UniProt P11835); assay: two-column affinity chromatography, immunoblot (FIG. 15C)
[5] = target: β1 integrin (surface protein of NIH3T3 cells) (murine (NIH3T3 murine fibroblasts)) (UniProt P09055); assay: as above
[6] = target: T1, β3 integrin (surface protein of NIH3T3 cells) (murine (NIH3T3 murine fibroblasts)); assay: as above

Measured: binding

B1: soluble ICAM-2 (biochemically purified human ICAM-2 protein) (ligand, UniProt P13598 25-223, looked up)
chain: KVFEVHVRPKKLAVEPKGSLEVNCSTTCNQPEVGGLETSLDKILLDEQAQWKHYLVSNISHDTVLQCHFTCSGKQESMNSNVSVYQPPRQVILTLQPTLVAVGKSFTIECRVPTVEPLDSLTLFLFRGNETLHYETFGKAAPAPQEATATFNSTADREDGHRNFSCLAVLDLMSRGGNIFHKHSAPKMLEIYEPVSDSQ
binds: [1] | [2] | [3] | [4] | [5] | [6]

From patent US20150241442A1
